Test [1] has as its target human GFRAL (analyte in Biacore assays) (human) (UniProt Q6UXV0). In words: Biacore SPR (FIG. 3). (In general: Surface plasmon resonance follows binding to a sensor surface in real time, without labels.)
Test [2] has as its target mouse GFRAL (analyte in Biacore assays) (mouse) (UniProt Q6SJE0). In words: Biacore SPR, antibody captured, GFRAL injected.
For test [3], the target named is human GFRAL (analyte in Biacore assays) (human) (UniProt Q6UXV0). In words: SPR (FIGS. 13A and 13B).

Sequences of proteins named here, by UniProt entry; tags and fusion partners are left off. A change or cut given only in a name is not applied to a line headed by its entry.
UniProt Q6UXV0: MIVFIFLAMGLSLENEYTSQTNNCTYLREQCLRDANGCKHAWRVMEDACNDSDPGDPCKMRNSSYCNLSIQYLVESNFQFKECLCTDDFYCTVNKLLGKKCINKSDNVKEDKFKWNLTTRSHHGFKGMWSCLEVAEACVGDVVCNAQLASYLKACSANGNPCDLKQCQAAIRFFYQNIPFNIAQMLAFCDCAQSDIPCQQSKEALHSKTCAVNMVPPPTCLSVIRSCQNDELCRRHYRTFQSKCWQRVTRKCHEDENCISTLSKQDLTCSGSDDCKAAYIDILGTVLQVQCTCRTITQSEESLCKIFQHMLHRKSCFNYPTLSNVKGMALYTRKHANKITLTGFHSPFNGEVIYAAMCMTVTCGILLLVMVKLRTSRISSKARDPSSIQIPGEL
UniProt Q6SJE0: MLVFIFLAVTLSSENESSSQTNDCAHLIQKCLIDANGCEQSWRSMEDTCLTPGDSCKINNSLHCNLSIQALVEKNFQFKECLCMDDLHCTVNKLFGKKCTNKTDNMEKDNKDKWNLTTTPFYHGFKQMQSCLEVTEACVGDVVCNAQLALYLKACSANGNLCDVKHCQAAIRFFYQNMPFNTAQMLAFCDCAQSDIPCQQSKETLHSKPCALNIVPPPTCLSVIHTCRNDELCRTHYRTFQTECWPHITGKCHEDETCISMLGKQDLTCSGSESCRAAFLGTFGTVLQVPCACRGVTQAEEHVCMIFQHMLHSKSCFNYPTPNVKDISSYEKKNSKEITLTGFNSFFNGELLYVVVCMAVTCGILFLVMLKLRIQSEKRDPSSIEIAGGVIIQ

These are yes or no findings as the source states them, for the method shown. Some results given as binding are weak or reduced against the parent protein; the word gives no strength.

B1: antibody designated 1C1 (antibody, V domains shown)
VH: QMQLKQSGPGLVQPSQSLSITCTVSGFSLNDYGVHWIRQSPGKGLEWLGVIWSGGRTDYNAAFISRLSISKDNSKSQVFFKMSSLQPQDTAIYYCARWALYFLYGGSMDYWGQGTSVTVSS
VL: DVVLTQTPLSLPVSPGDQASISCRSSQSLVHSSGITYLHWYLQKPGQSPKLLIYKLSNRFSGVPDRFSGSGSGTDFTLKISRVEAEDLGVYFCSQSTHVPPWTFGGGTKLEIK
In the case of B1, in test [1], the binding result is “binds”.

B2: antibody designated 8C10 (antibody, V domains shown)
VH: QVQLQQSGVELARPGAAVKLSCKASGYTFANYGLTWVKQRTGQGLEWIGEIYPGSGHTHYNEDFKGKATLTADRSSSTAYMELRSLTSEDSAVYFCARRIQLLLPVGGFVYWGQGTLVTVSA
VL: DFVLTQSPATLSVTPGDSVSLSCRASQSISNNLHWYQQKSHESPRLLIKYASQSISGIPSRFSGSGSGTDFTLSINSVETEDFGVYFCQQSNSWPHTFGGGTKLEIK
Regarding B2, in test [2], the binding entry is “binds”.

B3: humanized anti-GFRAL antibody HC-344e/LC-344h (antibody, IgG1, V domains shown)
VH: QVQLVQSGAEVKKPGSSVKVSCKASGYTFTDYGVIWVRQAPGQGLEWMGWINTYTGEPTYADDLKGRVTFTADESTSTAYMELSSLRSEDTAVYYCARRYGPEDIDYWGQGTTVTVSS
VL: DVVLTQSPLSLPVTLGQPASISCRASESVDNYGISFMSWFQQRPGQSPRLLIYAASHQGSGVPDRFSGSGSGTDFTLKISRVEAEDVGVYFCLQSKEVPWTFGGGTKVEIK
For B3, in test [3], the binding entry was “binds”.

For the origin of these results see patent US20170306031A1.
